Patent US4086196A (Armour Pharmaceutical Company, priority 1975, dated 1978)
HELM strings list residues between dots; [ac] is acetyl, [am] amide, other brackets name non-standard units.

Experiment: general procedure: Boc solid-phase peptide synthesis; Boc-phenylalanine resin; dicyclohexylcarbodiimide; p-nitrophenyl esters for Gln and Asn

PEPTIDE1{S.V.S.E.I.Q.L.M.H.N.L.G.K.H.L.N.S.M.E.R.V.E.W.L.R.K.K.L.Q.D.V.H.N.F}$$$$V2.0
step yield (purification step, based on yield of crude peptide recovered after cleavage): 10.5%
crude mass (whole synthesis): 1.65 g
